Data reported in article PMC13434705.
No constants are given. Whether binding was seen depends on the method and setting. In cells and extracts the contact can be indirect. Some results given as binding are weak or reduced against the parent protein; the word gives no strength. Each block holds one substance with its values, some of them ahead of it.

The chains behind the UniProt entries cited, without tags or fusion partners. Where a name states a change or a piece, a line headed by the entry shows the natural chain unless it says otherwise.
UniProt P19474: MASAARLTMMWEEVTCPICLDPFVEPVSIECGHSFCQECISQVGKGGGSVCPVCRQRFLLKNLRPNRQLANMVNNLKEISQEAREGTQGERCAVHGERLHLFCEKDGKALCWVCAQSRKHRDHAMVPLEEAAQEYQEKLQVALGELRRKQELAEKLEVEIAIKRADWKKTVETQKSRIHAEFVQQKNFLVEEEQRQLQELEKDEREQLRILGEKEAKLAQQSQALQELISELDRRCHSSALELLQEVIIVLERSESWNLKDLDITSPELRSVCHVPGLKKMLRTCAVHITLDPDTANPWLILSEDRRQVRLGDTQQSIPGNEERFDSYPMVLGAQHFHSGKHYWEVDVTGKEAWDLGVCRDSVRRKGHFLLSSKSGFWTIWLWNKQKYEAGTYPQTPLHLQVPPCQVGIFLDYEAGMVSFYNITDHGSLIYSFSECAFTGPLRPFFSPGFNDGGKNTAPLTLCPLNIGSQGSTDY
UniProt P09874: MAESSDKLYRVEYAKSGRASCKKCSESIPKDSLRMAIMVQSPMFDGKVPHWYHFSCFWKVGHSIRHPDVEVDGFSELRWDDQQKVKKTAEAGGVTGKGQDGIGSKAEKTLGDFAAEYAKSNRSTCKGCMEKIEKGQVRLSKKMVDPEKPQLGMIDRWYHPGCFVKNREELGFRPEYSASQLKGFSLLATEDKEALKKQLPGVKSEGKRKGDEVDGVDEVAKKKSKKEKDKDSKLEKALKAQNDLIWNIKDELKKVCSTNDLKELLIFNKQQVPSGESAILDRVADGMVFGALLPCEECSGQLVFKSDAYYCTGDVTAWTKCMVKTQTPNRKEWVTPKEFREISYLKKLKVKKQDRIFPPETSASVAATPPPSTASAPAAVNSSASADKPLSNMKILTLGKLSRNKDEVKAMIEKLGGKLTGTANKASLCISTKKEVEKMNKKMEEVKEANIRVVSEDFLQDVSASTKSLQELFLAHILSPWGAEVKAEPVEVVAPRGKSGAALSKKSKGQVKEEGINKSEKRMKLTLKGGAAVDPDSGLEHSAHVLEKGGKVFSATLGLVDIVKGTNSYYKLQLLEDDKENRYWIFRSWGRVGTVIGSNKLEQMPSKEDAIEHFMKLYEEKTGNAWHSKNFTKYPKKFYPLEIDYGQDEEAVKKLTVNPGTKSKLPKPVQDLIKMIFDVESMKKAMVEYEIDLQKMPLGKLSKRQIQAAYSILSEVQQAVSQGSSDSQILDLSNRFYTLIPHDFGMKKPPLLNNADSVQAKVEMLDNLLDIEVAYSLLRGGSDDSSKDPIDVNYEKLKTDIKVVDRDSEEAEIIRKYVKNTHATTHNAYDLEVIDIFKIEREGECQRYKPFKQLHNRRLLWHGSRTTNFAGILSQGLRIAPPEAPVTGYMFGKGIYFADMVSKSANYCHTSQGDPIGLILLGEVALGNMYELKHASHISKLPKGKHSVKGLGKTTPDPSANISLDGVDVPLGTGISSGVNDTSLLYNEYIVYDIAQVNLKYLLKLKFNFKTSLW

Tests used:
[1] = biological target: EGFP-TRIM21 (pcDNA3.1-EGFP-TRIM21, wild type) (human) (UniProt P19474); assay: co-IP; full-length and truncated EGFP-TRIM21 transfected into HEK293T cells, 48 h, EGFP-trap, immunoblot for PARP1
[2] = biological target: Flag-PARP1 (pCMV-PARP1-3x Flag-WT) (human) (UniProt P09874); assay: co-IP; Supplementary Fig. 1e; PARP1 ΔH3ID and K654R tested for binding to TRIM21; legend not shown
[3] = biological target: Flag-PARP1 K654R (pCMV-PARP1 K654R) (human) (UniProt P09874); assay: as above
[4] = biological target: Flag-PARP1 (pCMV-PARP1-3x Flag-WT) (human) (UniProt P09874); assay: co-IP; Flag-PARP1 and EGFP-TRIM21 transfected into DMS273, SHP77 and HEK293T cells; precipitation with an anti-Flag antibody
[5] = biological target: Poly(ADP-ribose) polymerase 1 (PARP1), endogenous (human (endogenous in DMS273, SHP77, HEK293T)) (UniProt P09874); assay: co-IP; endogenous proteins in DMS273, SHP77 and HEK293T lysates; lysis buffer 20 mM Tris-HCl pH 7.5, 150 mM NaCl, 1% Triton X-100, 1 mM EDTA; protein A/G magnetic beads
[6] = biological target: Poly(ADP-ribose) polymerase 1 (PARP1), endogenous (human (endogenous in DMS273, SHP77, HEK293T)) (UniProt P09874); assay: proximity ligation; Duolink in situ PLA with antibodies against PARP1 and TRIM21 in fixed DMS273 and SHP77 cells

binding [1]: binds
Substance: Poly(ADP-ribose) polymerase 1 (PARP1), endogenous (from UniProt P09874 1-1014)

binding [2]: binds
binding [3]: binds
binding [4]: binds
Substance: EGFP-TRIM21 (pcDNA3.1-EGFP-TRIM21, wild type) (from UniProt P19474 1-475)

binding [5]: binds
binding [6]: binds
Substance: tripartite motif-containing 21 (TRIM21), endogenous (from UniProt P19474 1-475)
